In the supplement of paper PMC5949888 one finds growth estimate data, which are given here for 75 substances.

Most values lie at the floor of the assay. Slopes are relative: functional sequences can read slightly below zero.

This series concerns Saccharomyces cerevisiae PS128 hsf1 delta, HSF1(1-493) fusion. Description: growth estimate (transactivation domain function in HSF1 fusion, heat-shock survival) (a.u. (slope of normalised read count over time)); higher = stronger growth at 37°C, i.e. more transactivation activity. The note with it: library: random library. As to the method: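 Random 60-nt DNA library encoding peptides of up to 20 aa, fused to the C-terminus of yeast HSF1 residues 1-493 (C-terminal TAD deleted) and expressed from the native HSF1 promoter on a CEN plasmid in hsf1-deleted S. cerevisiae PS128. Cells were selected at 37°C on -trp 5-FOA plates for 0, 2, 4, 6 and 8 days and amplicons were sequenced. Growth estimate is the slope of a robust linear fit of total-sum-normalised read counts (normalised to the first time point) over time, using at least 2 replicates. Sequences are classed functional (TAD activity) above a threshold of -0.13, set from stop-codon control sequences.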
IKHTRDR: the growth estimate was less than -0.25.
Turning to NLFV, the growth estimate was less than -0.25.
YVDQGTNRGSDTHDPHARQQ: the growth estimate was less than -0.25.
For PKIYRPTRCRRGRLRSMRGY the value was -0.245; for GNPPVEEKLITII, less than -0.25.
Consider QHESGSGVIGLRFAVS, for which the growth estimate is -0.198.
For CLCVVT the value was less than -0.25; for GGTMGYGYMSKSATASPQPL, less than -0.25.
Take GQIVSCQYVRVLE: the growth estimate is less than -0.25.
For NDEVSSKFVIGCSMIDPSLP the value was less than -0.25.
On to RSRWSGGGLRTYRKS, for which the growth estimate is less than -0.25.
GHRWYRPER: the growth estimate is less than -0.25.
For CNRGTPADSFRAYMPMVLCA the value was less than -0.25; for KCRWVCSSGIFSIFVILCDE, less than -0.25; for YRIILRNRGIL, less than -0.25.
For QTSDW the value was less than -0.25; for IGFEIVSGFDLSVRWVVASG, less than -0.25.
In the case of AAEYIHESKRKSSRSRKVIA, the growth estimate is less than -0.25.
Next, WEGFARYKSDNEGGAEHPFE: less than -0.25.
Take NRRSNGLAAPGRATYAGQSR: the growth estimate is less than -0.25.
For GRIRHGGGKPRQKIDV the value was less than -0.25.
Next, FCQGQPLGEHARHTGGTDFP: less than -0.25; HTLFALGKARTVF: less than -0.25.
Regarding PHKLRDECNVMNTLWEQTR, the growth estimate is less than -0.25.
For the substance EWALIV, the growth estimate is less than -0.25.
Take LVRVVIIELGVRGSGAHNTG: the growth estimate was less than -0.25.
Regarding TRERLSLFPAH, the growth estimate is less than -0.25.
Next, ALNLDVLVKRLSYKRVFWAL: less than -0.25; RVAS: -0.172; NFHV: less than -0.25.
Next, GWGSGRNHRLSPLRNVDCQG: less than -0.25; KTKGILG: -0.231; TKIEGQLYIDGVPGSPRGLS: less than -0.25.
Next, KVSSAFKL: -0.243; RSARSIS: less than -0.25.
Consider RDPKSTWVVLTQGLRVLRQW, for which the growth estimate is less than -0.25.
For FVGQARMDDRTGLCAL the value was less than -0.25.
Regarding VLATR, the growth estimate is less than -0.25.
Next, LCLRYSGRS: less than -0.25; AAWLRYTIRA: less than -0.25; RSDESYIGLRVSFTPYDGYV: less than -0.25.
On to NVGLYVK, for which the growth estimate was less than -0.25.
Regarding RSLKVKDMVRQGTIAR, the growth estimate was less than -0.25.
RLQRDWP: the growth estimate was less than -0.25.
LEFRSSY: the growth estimate is less than -0.25.
Next, PMIRTRQMVSGPGTRED: less than -0.25; TGCTGIFSNVQINCTRVFKD: less than -0.25.
For the substance HQMGSYAVSRSPGGSQTYLC, the growth estimate was -0.235.
For SSPLLFG the value was -0.245; for IGNSRVAG, less than -0.25; for KGGGKNSPMTLSANPL, less than -0.25.
As to SVAGILKASCYEIIVARLRG, the growth estimate was less than -0.25.
Regarding RASLGNRFL, the growth estimate was less than -0.25.
For SCQGSLWCGTGSLSY the value was less than -0.25; for ARCSSDMG, less than -0.25; for DCSGGRYFATANLFRNGPGL, less than -0.25.
For VVRRGPSTLQVRWASTYVVS, the growth estimate is less than -0.25.
As to IQDRRMSSRRERTGLSS, the growth estimate was less than -0.25.
In the case of PVAPPIIRDLTGGCL, the growth estimate is less than -0.25.
For the substance MLVLALGDIRRLAIAIRRRC, the growth estimate was less than -0.25.
As for YRTIAL, the growth estimate is less than -0.25.
Next, WNMEPPSLYGRAASPRP: less than -0.25; DYGMLAMGASHREGSSWSLR: less than -0.25.
Next, CLPRVEEVR: less than -0.25; RWGTIHRGLIPLISAKCIIP: less than -0.25.
In the case of GNTAGRRSSQWLSSKQWAAF, the growth estimate was less than -0.25.
For SYPELEFTRGFGAKGQLPTN the value was less than -0.25.
For NDVWSKQSRRAQYIVYRSSI, the growth estimate was less than -0.25.
Next, RAVRNDGS: less than -0.25; PTHSA: less than -0.25.
Next, LLISTSTSMPPYEA: less than -0.25.
Regarding KCY, the growth estimate is less than -0.25.
Turning to FVPL, the growth estimate was less than -0.25.
As for QHRGSGPMRTLRA, the growth estimate is less than -0.25.
For LWP the value was less than -0.25.
